Data reported in patent US20050003371A1, “Modified nucleotides and methods of labeling nucleic acids” (Stratagene, priority 2002, published 2005).

Tests used:
[1] = Characterization of functionalized nucleotides: DNA probe made therewith (Appendix 1)
[2] = tested on: human alpha 1-antitrypsin transcripts; test: Northern blot, chemiluminescent detection with fluorescein-labeled riboprobes (Procedure 9); design: species or system mouse

Row | Substance | DNA probe made therewith? [1] | amount of transgenic mouse messenger RNA in which transcripts were detected ([2]; messenger RNA) | amount of total mouse RNA in which transcripts were detected ([2]; total mouse RNA)
1 | pyridine dithiopropanoate-dUTP [PDP-dUTP] | Yes | – | –
2 | Fluorescein-12-dUTP [reference compound] | Yes | – | –
3 | maleimido-methylcyclohexane-dUTP [MCC-dUTP] | Yes | – | –
4 | fluorescein-12-UTP | – | 2 µg | 10 µg
